Data as given in paper PMC12594171, “DKK3-LRP1 complex and a chemical inhibitor regulate Aβ clearance in models of Alzheimer’s disease” (Science Advances, 2025).
Results are given in words; binding and its absence hold for the method and conditions named. In cells and extracts the contact can be indirect. Some entries that bind do so weakly or less than the wild type.

Amino acid sequences for entries named in this document (tags omitted). Residues count along the entry.
UniProt O75581, residues 20-1613: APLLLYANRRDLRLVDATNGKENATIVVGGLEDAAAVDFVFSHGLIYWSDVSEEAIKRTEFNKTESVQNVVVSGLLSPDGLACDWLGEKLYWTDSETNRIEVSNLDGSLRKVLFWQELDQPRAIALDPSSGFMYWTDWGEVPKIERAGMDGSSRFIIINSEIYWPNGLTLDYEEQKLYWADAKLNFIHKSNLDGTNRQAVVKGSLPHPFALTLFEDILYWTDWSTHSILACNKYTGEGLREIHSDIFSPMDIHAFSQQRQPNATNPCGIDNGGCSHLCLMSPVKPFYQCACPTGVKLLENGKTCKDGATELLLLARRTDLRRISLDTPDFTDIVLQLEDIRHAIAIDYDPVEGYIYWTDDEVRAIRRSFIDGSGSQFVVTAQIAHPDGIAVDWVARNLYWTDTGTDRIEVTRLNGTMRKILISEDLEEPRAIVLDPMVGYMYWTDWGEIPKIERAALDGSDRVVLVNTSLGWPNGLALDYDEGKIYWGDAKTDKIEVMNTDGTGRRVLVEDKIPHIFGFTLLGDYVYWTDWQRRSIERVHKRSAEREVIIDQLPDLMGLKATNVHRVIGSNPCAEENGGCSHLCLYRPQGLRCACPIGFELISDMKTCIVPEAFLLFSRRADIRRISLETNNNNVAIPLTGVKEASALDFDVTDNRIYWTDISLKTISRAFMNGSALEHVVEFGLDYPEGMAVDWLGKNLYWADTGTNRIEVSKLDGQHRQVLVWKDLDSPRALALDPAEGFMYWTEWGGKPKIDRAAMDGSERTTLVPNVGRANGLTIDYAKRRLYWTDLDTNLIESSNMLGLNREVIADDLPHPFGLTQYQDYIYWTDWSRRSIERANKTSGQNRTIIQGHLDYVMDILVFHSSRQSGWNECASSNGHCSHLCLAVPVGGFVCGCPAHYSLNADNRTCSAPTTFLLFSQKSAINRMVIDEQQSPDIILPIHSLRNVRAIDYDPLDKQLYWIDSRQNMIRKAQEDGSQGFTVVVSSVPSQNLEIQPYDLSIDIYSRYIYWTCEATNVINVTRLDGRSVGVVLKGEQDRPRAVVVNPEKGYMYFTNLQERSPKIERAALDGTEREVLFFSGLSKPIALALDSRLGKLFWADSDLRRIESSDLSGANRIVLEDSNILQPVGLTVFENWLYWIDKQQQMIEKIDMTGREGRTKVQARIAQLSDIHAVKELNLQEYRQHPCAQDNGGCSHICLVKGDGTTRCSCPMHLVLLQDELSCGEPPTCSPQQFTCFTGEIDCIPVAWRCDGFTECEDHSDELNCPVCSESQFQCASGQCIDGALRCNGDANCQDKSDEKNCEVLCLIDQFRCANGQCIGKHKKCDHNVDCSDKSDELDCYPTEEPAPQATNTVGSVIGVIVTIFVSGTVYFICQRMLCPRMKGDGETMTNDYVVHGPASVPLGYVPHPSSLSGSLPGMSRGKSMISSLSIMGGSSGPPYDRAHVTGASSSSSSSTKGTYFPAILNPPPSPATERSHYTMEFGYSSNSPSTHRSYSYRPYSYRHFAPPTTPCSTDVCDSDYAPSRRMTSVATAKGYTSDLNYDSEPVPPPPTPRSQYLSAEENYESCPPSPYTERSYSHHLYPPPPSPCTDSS
UniProt Q07954, residues 20-4544: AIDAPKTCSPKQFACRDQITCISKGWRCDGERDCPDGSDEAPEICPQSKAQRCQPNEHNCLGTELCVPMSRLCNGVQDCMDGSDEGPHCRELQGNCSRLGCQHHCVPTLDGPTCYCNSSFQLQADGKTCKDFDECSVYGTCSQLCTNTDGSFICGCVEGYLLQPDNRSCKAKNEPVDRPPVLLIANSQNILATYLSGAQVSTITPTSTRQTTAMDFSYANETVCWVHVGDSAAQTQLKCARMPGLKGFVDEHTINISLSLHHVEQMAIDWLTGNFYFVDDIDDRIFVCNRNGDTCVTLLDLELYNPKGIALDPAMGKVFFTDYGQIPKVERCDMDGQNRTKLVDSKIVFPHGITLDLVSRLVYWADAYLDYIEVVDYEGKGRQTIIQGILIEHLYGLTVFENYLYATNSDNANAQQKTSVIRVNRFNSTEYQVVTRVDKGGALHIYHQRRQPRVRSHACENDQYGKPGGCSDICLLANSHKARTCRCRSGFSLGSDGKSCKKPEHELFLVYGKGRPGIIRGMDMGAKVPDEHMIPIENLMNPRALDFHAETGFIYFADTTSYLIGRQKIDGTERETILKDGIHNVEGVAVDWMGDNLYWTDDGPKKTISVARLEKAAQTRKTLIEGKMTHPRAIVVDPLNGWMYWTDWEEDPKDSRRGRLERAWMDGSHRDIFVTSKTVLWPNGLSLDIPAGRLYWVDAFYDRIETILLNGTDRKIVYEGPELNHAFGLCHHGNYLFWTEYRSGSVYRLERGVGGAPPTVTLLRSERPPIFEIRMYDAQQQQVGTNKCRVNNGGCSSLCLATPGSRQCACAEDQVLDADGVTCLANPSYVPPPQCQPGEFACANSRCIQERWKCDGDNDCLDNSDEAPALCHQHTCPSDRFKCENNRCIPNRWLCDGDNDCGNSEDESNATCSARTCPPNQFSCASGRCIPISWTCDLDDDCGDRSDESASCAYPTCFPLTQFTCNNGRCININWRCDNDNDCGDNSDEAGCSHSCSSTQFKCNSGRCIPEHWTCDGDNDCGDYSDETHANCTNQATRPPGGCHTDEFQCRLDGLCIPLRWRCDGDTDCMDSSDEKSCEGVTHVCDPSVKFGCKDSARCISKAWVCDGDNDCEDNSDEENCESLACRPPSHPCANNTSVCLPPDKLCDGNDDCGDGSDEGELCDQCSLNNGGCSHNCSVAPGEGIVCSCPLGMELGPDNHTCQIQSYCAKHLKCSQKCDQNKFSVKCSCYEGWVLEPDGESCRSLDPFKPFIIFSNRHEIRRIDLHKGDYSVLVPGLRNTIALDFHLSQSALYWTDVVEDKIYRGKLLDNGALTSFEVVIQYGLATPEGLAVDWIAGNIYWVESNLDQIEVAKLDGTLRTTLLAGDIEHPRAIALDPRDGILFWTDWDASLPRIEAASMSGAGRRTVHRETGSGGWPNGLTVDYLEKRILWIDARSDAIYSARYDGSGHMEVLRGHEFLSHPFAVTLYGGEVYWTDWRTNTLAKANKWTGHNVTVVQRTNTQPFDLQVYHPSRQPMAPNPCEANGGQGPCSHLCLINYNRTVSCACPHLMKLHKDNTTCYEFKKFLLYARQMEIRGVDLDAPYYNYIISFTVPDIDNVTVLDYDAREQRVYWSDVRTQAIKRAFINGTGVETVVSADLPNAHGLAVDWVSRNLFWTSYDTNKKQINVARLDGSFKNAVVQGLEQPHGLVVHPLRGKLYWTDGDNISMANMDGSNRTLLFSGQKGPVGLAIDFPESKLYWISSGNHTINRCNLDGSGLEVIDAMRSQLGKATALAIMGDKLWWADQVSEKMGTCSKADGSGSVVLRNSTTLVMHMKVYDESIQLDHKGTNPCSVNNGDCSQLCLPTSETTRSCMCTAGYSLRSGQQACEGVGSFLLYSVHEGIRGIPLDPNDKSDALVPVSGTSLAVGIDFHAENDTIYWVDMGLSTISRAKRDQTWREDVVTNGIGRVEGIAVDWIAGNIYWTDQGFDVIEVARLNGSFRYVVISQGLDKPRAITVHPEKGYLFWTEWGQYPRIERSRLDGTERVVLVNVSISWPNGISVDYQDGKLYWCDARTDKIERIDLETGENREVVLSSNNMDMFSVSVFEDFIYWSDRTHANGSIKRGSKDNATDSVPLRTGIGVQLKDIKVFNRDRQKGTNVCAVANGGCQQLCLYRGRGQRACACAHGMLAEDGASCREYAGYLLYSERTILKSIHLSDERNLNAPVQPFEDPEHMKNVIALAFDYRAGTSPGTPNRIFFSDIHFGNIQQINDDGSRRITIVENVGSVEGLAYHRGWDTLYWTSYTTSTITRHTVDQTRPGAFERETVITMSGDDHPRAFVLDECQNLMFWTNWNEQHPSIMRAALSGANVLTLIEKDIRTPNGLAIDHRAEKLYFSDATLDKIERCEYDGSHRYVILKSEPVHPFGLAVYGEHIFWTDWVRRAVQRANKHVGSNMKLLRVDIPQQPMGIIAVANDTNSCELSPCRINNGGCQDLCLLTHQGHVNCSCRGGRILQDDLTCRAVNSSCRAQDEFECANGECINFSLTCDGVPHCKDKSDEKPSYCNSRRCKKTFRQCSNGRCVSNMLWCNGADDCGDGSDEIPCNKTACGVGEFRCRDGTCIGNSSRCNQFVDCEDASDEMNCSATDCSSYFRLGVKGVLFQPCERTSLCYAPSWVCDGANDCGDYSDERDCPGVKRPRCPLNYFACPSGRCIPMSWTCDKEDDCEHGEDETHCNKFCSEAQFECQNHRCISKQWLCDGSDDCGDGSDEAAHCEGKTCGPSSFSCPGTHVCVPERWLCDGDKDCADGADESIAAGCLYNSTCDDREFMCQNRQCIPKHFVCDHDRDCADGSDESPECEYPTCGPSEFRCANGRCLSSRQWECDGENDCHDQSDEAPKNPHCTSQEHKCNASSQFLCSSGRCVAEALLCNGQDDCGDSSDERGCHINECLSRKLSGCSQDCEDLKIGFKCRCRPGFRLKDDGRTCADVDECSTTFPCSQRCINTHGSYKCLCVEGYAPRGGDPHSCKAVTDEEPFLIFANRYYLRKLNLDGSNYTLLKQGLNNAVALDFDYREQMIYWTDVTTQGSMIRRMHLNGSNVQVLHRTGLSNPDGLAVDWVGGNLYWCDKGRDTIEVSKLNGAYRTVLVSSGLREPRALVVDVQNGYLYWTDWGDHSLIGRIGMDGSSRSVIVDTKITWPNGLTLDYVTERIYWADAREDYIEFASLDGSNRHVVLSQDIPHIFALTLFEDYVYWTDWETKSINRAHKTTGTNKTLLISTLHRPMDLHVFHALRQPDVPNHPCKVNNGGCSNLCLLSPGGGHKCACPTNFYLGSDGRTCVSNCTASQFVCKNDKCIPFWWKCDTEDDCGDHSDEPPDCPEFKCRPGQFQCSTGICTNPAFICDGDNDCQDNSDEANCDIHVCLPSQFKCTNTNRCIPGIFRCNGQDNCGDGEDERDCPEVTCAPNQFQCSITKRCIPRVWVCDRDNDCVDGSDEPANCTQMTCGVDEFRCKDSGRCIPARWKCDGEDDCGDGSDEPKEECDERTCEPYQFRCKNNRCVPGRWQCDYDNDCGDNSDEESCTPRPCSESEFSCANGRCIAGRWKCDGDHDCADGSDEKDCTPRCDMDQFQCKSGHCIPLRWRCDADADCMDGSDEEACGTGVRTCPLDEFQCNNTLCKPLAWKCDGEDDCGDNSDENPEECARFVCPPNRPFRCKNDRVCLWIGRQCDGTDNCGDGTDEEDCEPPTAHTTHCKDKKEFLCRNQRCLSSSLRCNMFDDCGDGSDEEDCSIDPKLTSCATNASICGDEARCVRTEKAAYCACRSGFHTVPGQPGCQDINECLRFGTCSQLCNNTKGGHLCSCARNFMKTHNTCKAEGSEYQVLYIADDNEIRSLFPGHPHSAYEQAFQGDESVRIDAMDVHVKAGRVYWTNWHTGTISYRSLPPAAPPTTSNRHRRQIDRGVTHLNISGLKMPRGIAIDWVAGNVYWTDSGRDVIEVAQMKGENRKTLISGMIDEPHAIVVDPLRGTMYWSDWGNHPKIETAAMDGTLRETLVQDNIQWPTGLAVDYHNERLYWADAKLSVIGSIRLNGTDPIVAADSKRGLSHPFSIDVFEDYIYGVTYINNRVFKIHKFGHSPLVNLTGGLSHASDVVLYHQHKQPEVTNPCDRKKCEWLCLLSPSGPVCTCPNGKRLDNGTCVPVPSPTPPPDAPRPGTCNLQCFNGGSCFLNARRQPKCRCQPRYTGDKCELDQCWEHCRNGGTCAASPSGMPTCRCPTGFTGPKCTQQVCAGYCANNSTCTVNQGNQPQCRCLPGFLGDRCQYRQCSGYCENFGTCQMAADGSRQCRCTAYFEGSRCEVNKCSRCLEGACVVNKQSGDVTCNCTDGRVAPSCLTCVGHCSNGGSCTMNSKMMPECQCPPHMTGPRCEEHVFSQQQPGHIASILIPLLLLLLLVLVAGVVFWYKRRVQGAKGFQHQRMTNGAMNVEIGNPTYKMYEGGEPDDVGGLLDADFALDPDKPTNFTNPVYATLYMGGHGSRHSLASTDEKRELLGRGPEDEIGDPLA
UniProt Q9QUN9, residues 23-349: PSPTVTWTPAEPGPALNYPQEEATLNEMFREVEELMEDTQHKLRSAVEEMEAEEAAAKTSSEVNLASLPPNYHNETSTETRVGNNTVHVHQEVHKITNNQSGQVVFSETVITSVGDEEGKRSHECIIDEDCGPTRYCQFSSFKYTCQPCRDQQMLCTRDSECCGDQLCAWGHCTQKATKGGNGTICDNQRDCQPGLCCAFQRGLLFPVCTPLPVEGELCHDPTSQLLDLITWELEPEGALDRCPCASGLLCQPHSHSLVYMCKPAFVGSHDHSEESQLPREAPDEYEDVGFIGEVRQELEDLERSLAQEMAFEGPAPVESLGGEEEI

Experiments:
[1] = molecular target: LRP6, endogenous in human brain (human (endogenous in AD brain)) (UniProt O75581); assay: co-IP; human AD brain lysates, IP with antibodies to DKK1, DKK3 and LRP1, IgG as negative control, immunoblot
[2] = molecular target: soluble LRP1 (sLRP1), endogenous in mouse plasma (mouse (endogenous in 5×FAD plasma)) (UniProt Q91ZX7); assay: co-IP + ELISA; plasma of 5×FAD mice treated with vehicle or SJ-300; anti-LRP1 antibody and Protein G agarose overnight at 4°C; bound DKK3 by ELISA
[3] = molecular target: LRP1, endogenous in differentiated AD-NSC cultures (human (endogenous in iPSC-derived AD-NSC cultures)) (UniProt Q07954); assay: co-IP; differentiated AD-NSC cultures incubated with 1 μM Aβ42 and various concentrations of purified DKK1-Flag or DKK3-Flag for 30 min; total extract precipitated with anti-LRP1 antibody; immunoblot; only the binder purified

Substance: DKK3, endogenous in human brain (from UniProt Q9UBP4 22-350) (ligand)
- binding [1]: no binding

Substance: DKK3, endogenous in mouse plasma (from UniProt Q9QUN9 23-349) (ligand)
- binding [2]: binds

Substance: DKK3-Flag (from UniProt Q9UBP4 22-350) (ligand)
- binding [3]: binds
